From paper PMC5599542

The chains behind the UniProt entries cited, without tags or fusion partners.
UniProt P62993: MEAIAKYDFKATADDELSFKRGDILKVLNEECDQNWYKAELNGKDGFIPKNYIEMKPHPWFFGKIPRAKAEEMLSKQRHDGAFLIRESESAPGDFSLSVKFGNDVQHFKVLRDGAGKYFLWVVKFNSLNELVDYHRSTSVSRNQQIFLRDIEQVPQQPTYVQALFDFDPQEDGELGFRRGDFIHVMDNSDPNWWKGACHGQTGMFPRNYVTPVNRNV
UniProt Q12774: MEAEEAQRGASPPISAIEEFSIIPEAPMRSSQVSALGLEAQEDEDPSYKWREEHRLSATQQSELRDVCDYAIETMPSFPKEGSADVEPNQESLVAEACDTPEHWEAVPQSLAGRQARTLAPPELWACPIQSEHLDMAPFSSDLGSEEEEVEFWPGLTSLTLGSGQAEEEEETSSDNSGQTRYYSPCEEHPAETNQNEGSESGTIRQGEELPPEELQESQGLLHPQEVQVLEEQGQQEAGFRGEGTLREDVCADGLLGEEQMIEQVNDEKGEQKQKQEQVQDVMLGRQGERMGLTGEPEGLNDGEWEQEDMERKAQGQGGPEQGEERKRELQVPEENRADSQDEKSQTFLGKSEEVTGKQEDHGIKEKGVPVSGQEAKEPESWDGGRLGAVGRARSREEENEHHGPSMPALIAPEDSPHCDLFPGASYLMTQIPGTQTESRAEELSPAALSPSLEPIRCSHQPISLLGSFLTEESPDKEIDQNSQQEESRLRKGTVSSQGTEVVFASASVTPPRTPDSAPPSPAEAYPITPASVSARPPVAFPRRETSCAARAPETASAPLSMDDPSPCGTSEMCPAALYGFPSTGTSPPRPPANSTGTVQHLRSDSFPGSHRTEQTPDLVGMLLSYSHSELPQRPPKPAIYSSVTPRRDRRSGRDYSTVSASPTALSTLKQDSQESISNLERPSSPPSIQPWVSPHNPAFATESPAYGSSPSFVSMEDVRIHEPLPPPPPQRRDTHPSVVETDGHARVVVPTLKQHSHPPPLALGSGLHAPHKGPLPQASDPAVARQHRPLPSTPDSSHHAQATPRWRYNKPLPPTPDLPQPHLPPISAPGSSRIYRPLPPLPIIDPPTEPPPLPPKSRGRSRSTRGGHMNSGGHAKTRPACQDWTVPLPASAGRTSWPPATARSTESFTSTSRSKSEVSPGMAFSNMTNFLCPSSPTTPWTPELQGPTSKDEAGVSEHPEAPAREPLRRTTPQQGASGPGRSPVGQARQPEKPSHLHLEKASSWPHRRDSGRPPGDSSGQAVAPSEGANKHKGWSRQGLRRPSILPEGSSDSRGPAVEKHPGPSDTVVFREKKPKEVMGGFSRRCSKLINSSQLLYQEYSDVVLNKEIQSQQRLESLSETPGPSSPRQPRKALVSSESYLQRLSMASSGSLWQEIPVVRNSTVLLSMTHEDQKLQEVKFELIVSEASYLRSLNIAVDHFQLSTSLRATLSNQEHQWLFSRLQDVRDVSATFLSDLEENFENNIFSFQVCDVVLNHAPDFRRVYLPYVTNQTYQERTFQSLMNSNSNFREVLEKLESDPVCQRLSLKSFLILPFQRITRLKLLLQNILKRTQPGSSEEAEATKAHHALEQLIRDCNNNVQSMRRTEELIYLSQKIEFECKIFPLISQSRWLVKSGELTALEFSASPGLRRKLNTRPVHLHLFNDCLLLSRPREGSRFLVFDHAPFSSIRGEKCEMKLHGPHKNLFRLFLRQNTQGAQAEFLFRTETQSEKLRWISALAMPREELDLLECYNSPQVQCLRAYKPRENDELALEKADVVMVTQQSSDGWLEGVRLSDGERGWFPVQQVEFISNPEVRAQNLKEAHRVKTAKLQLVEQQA
UniProt A5YM69: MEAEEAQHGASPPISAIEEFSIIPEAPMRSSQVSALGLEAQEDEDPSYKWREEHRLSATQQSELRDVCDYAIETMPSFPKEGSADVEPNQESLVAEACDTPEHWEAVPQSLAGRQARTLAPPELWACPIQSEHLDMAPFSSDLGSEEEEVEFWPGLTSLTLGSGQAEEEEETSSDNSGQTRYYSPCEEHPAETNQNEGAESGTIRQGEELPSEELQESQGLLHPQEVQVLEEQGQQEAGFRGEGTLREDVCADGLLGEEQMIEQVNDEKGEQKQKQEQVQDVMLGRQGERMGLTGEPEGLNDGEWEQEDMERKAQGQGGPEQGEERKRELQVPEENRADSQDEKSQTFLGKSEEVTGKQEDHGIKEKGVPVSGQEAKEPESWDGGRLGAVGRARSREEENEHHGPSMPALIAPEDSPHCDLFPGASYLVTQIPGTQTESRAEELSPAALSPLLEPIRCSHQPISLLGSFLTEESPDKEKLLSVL

B1: STAP2 adaptor protein, endogenous in HCC1954 cells (protein, UniProt Q9UGK3 1-403)
chain: MASALRPPRVPKPKGVLPSHYYESFLEKKGPCDRDYKKFWAGLQGLTIYFYNSNRDFQHVEKLNLGAFEKLTDEIPWGSSRDPGTHFSLILRDQEIKFKVETLECREMWKGFILTVVELRVPTDLTLLPGHLYMMSEVLAKEEARRALETPSCFLKVSRLEAQLLLERYPECGNLLLRPSGDGADGVSVTTRQMHNGTHVVRHYKVKREGPKYVIDVEQPFSCTSLDAVVNYFVSHTKKALVPFLLDEDYEKVLGYVEADKENGENVWVAPSAPGPGPAPCTGGPKPLSPASSQDKLPPLPPLPNQEENYVTPIGDGPAVDYENQDVASSSWPVILKPKKLPKPPAKLPKPPVGPKPEPKVFNGGLGRKLPVSSAQPLFPTAGLADMTAELQKKLEKRRALEH

Molecular target: 3xFLAG-GRB2 (Growth factor Receptor-Bound protein 2), stably expressed in HCC1954 cells (human) (UniProt P62993)
Assay: affinity purification with mass spectrometry; 3xFLAG-GRB2 purified on M2 anti-FLAG resin (1h30, 4 °C) from lysates of stable HCC1954 cells treated or not with pervanadate (PV); biological triplicates; SAINT score above 0.9 against 3xFLAG-GFP controls

| Molecule | binding |
| --- | --- |
| ARHGEF5, endogenous in HCC1954 cells (from UniProt Q12774 1-1597) | binds |
| ARHGEF35 (ARHGEF5-like), endogenous in HCC1954 cells (from UniProt A5YM69 1-484) | binds |
| B1 | binds |

These are yes or no findings as the source states them, for the method shown. In cells and extracts the contact can be indirect. These calls come from enrichment with a bait or labelling near it, and not all partners need be listed.
